The supplement of paper PMC3334620
The full ranking holds about 33,000 sequences; the median of “E-score (-0.5 to 0.5)” is about -0.0014, and the highest 2% start at about 0.25. The list shows a part of the results.

The sequences below were run against T1, Cad1 (UniProt P24813) (assay: PBM E-score (8-mer binding enrichment) (E-score (-0.5 to 0.5)); higher = stronger / more preferred TF binding). Conditions: protein concentration: 100 nM; construct: GST-full length.
T1 sequence: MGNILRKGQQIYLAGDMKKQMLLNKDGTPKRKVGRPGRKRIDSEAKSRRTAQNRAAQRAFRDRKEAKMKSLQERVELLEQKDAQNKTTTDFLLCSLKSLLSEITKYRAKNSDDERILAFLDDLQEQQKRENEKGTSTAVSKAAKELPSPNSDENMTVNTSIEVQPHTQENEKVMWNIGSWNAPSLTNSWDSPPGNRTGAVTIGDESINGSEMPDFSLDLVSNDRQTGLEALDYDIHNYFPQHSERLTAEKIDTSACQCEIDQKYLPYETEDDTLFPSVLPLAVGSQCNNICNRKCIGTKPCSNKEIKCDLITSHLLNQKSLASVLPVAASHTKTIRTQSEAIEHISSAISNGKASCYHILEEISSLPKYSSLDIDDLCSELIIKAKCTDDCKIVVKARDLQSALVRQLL
Summary of the method: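 Bound GST-tagged yeast transcription factors, applied at about 100-200 nM to double-stranded universal all-10-mer Agilent arrays, were detected with fluorescent anti-GST. Scans were normalised with masliner. A modified Wilcoxon-Mann-Whitney statistic, the E-score, was assigned to each ungapped eight-base word pooled with its reverse complement by the Universal PBM Analysis Suite.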

Sequence | PBM E-score
ATGTCTCG | -0.0801
AATGCGAA | -0.0481
GTACGTAA | 0.0715
AACAGAGT | 0.0399
TAAGGCGA | 0.0486
ACCTTACT | 0.12
GATGGATA | -0.042
CCCAAGAA | 0.0477
ATAACTCG | 0.00367
GTTATAAC | -0.144
GGTAAACC | -0.104
GCCATAAA | 0.125
AATCCAAT | 0.167
GAGTACCA | 0.0455
AGGTGTAC | -0.0525
AGTTCCAT | 0.0876
AAACACCT | -0.051
TATCGTGA | -0.0114
GGTTGTGA | 0.0429
TTAGACAA | 0.117
GGCGTCTA | -0.11
AAGATGTG | 0.0137
ACGCCCAC | -0.123
GGACTACC | -0.177
ACGCACCG | 0.0681

7 entries picked at random from the list so far:
Sequence | PBM E-score
GAGTACCA | 0.0455
GGCGTCTA | -0.11
GTACGTAA | 0.0715
AAGATGTG | 0.0137
GCCATAAA | 0.125
AAACACCT | -0.051
TATCGTGA | -0.0114

Following part:

Sequence | PBM E-score
CGTTGCGA | -0.123
TCCAAAGA | -0.0468
CTACTGAG | -0.0438
CCTCAATA | -0.334
ATTACTGA | 0.182
GCGCTGAA | 0.0173
ATGACCTG | -0.143
AAGAAAAA | 0.131
GCTGACTA | 0.335
GACGCAAA | 0.119
TAATATAA | 0.332
GAAGCGCC | -0.0668
TAGCTTAA | 0.146
ACTATGCA | 0.0796
AAGAATCC | -0.117
CCCGCCCC | 0.0573
ATCACTAA | 0.112
CCATGCGA | 0.11
CTGATCGC | -0.0234
AATGAGTG | 0.0485
ATGCGGTC | 0.0756
ACATCTCG | 0.0707
AGGCATTC | -0.195
AAGGATGC | -0.0777
CCTGCTAG | -0.182

Sequence | PBM E-score
AAATATTT | 0.228
CTGCTGGC | -0.321
AATTTTCA | 0.0453
GACACTCA | -0.0643
CCACTCTA | -0.0335
ACCGTCCG | -0.109
ACTCCACT | -0.0657
CTGCCAGA | -0.109
ACAGCTTG | 0.0747
ATATACCG | 0.217
CGCAGCTA | 0.0862
AGTACACC | 0.00647
CTTTCACC | -0.14
TAATGCGA | 0.0269
CCTAAGCC | -0.105
CCCGAACC | -0.119
CAAACCAG | -0.0298
CCTGGTAG | -0.209
CCTTATAC | -0.0554
CAGTCACG | 0.0409
CCGGTGCG | -0.0877
CAGTGGTC | -0.187
GGTCCTGA | 0.00923
GGTAACAC | 0.0182
CACACCGG | -0.101

Sequence | PBM E-score
CACACGCA | -0.132
CAGCCCGC | -0.145
GAAACCAC | -0.0261
GTTACGAA | 0.17
ACGTGCAA | 0.142
TGCGCTAA | 0.156
GCCGTTCC | -0.00956
GACTAGAC | -0.126
CAAACACG | 0.126
ACGCTGCC | -0.105
ATTGGCAG | -0.0523
CAGCAAAG | 0.168
TATCTTGA | -0.0983
AAACAATA | 0.251
GTCTCGAA | -0.0248
AGTCTCTC | -0.232
TTGAGAAA | 0.1
GCGGACCA | 0.146
ATGTAATA | 0.334
GCTAATCC | 0.0952
CACTGGGC | -0.0426
CTGTGGAA | -0.0153
CAAGATCG | 0.025
CTGTAAGC | 0.125
GGTGCATA | 0.00671

Sequence | PBM E-score
AACGTCGC | -0.00801
AAGCCGGA | 0.197
CTTGAACA | 0.0739
CAAGAGCC | 0.0977
ACCTCCCG | -0.177
TATCTGCA | 0.0927
AATCCGGT | 0.104
CGATGGCG | 0.109
CAGGGGAC | -0.302
CTTCACCC | 0.099
TACAAGGA | -0.0412
GGCTCCTA | -0.241
AAATTCTT | -0.103
AAATTAAT | 0.288
CGCCTATA | -0.0376
GAGCCGAC | -0.279
GCCTTAGA | -0.129
CCTACACC | -0.143
CATATGGA | 0.158
TGACGCCA | -0.0891
CTGAGAAG | -0.0896
ATTGCCCA | -0.0728
AGTCATCG | 0.183
TCGTGTAA | 0.0331
GACGGAGA | 0.038

Sequence | PBM E-score
ACTAACCC | 0.0825
CTCAAAAG | -0.0906
CGTATGCC | -0.142
TACCGCCA | 0.0907
GACATAGA | -0.239
AAAGTGCG | 0.00817
GTATCCAC | 0.101
TTAGCAAA | 0.0022
GCGCCAGA | 0.0384
TCCATTAA | 0.0162
GCTTGTAC | 0.00405
CAATTGGC | 0.176
ACCGAACA | 0.106
CCGGAGCA | 0.0399
ATTCATAG | 0.0995
AGCTTGCG | 0.0854
AATGTAGA | -0.109
AGAGTTAG | -0.0285
CTGTATAA | 0.112
TGTACAAA | 0.179
AGCTCTGC | -0.313
AACAAAAG | 0.0576
GAGCTAGA | -0.178
AGGCGTCC | -0.0711
GGCGGAAC | 0.0109

Sequence | PBM E-score
CATCCAGC | 0.0753
CCATGGCC | -0.163
CTCTGAGA | -0.145
GACTCTTA | 0.206
CCCTGAAC | 0.229
GCGCAAGA | 0.196
TACGATCA | 0.0567
AAGCGAAG | -0.143
ATGTCTTG | 0.0227
AGTGAATG | 0.18
ACAATCAT | 0.141
CGTGTATA | -0.0321
ATAGCGCA | 0.0765
CGGGTCAG | 0.0694
CGCGAAAG | 0.0755
GATGAGAC | 0.139
CTGCCTTC | -0.147
GCTCACCC | -0.17
AAGGCCAA | -0.0653
AACATCAT | 0.118
AAGCCCAT | -0.184
CCTATTGA | 0.0348
